These results are taken from PMC10740027.

The target in experiment [1] is T1, Ubiquitin Conjugating Enzyme E2O (UBE2O) (human (endogenous in HCCLM3, Hep-3B, Huh-7)) (UniProt Q9C0C9).
T1 sequence: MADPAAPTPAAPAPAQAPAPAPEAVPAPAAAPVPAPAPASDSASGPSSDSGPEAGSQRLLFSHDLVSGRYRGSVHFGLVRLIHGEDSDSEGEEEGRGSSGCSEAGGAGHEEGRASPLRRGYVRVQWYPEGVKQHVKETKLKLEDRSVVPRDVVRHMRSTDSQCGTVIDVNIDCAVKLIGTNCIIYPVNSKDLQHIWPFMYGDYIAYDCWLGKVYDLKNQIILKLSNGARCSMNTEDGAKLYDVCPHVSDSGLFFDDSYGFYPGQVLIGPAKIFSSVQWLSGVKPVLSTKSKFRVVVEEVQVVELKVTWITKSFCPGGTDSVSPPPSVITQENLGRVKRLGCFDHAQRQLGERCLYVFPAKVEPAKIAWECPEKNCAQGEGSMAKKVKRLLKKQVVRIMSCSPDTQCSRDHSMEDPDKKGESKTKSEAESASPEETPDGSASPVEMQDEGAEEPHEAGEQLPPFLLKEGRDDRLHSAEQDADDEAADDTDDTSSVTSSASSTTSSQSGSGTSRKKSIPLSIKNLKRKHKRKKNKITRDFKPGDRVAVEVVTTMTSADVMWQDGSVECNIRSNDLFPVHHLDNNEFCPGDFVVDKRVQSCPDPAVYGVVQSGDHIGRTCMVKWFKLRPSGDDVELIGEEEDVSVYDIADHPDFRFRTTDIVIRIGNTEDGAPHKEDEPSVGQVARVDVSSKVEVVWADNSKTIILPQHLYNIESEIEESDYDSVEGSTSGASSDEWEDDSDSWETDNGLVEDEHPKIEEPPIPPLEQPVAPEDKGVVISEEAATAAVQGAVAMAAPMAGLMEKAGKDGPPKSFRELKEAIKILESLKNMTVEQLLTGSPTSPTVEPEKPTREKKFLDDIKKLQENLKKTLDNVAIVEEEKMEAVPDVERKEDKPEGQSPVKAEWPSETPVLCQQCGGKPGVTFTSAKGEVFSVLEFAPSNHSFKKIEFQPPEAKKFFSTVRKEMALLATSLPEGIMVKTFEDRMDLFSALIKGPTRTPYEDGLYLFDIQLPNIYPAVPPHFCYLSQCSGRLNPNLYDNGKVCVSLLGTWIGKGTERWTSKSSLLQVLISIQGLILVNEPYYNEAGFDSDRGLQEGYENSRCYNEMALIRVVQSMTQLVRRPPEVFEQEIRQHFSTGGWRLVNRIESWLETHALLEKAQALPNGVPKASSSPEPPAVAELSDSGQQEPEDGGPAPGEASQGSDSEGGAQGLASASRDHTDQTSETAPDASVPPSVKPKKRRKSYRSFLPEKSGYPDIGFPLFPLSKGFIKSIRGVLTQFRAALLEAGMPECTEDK
The experiment in a line: co-IP; endogenous proteins; lysates of HCCLM3, Hep-3B and Huh-7 cells; protein A/G magnetic beads with anti-UBE2O or anti-IFIT3 antibodies; Western blot.

The target in experiment [2] is T2, UBE2O, tagged, expressed from a plasmid (UniProt Q9C0C9).
T2 sequence: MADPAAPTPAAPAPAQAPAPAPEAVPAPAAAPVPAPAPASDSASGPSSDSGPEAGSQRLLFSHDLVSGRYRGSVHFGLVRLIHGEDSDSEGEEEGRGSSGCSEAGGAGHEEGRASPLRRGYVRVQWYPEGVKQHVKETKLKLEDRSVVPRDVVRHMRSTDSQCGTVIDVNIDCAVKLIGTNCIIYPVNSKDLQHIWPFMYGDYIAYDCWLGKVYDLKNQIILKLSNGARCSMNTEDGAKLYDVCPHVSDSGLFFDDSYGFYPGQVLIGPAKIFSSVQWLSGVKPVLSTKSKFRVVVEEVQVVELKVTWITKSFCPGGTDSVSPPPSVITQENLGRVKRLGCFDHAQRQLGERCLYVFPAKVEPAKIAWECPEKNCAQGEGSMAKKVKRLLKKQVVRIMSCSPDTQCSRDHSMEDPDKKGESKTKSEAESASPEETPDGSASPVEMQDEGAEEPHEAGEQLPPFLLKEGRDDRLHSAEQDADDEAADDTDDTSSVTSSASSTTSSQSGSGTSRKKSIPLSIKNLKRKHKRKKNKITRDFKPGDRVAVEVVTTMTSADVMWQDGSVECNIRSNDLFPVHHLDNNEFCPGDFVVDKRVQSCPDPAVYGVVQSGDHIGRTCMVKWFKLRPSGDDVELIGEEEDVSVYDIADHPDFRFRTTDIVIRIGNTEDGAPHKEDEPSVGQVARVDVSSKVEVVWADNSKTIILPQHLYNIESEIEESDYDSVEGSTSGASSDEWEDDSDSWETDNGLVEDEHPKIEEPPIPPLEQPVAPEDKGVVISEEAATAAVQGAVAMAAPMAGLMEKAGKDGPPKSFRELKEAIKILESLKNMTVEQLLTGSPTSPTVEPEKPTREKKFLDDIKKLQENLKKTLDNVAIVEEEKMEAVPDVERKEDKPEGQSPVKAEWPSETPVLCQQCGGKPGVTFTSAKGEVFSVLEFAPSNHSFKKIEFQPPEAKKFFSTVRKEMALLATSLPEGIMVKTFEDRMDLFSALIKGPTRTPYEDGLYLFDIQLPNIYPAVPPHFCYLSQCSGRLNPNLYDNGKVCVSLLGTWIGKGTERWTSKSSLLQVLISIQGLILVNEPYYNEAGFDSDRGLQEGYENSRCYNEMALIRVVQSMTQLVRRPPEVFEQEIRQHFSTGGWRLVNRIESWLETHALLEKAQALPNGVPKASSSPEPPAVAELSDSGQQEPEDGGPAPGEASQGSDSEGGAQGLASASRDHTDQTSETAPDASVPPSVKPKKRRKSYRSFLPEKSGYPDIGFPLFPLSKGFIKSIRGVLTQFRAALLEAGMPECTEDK
The experiment in a line: co-IP; 293 T cells transfected with plasmids containing different tags, 48 h, MG132 (10 μM) 4-6 h; protein A/G beads and antibodies specific for the corresponding tags; Western blot. (In general: Immunoblotting shows a protein as a band on a membrane.)

Results are given in words; binding and its absence hold for the method and conditions named. In cells and extracts the contact can be indirect. Some results given as binding are weak or reduced against the parent protein; the word gives no strength. For some assays here: Where a sequence is shown, tags or fusion partners need not be part of it.

B1: interferon-induced protein with tetratricopeptide repeats 3 (IFIT3) (protein, UniProt O14879 1-490)
chain: MSEVTKNSLEKILPQLKCHFTWNLFKEDSVSRDLEDRVCNQIEFLNTEFKATMYNLLAYIKHLDGNNEAALECLRQAEELIQQEHADQAEIRSLVTWGNYAWVYYHLGRLSDAQIYVDKVKQTCKKFSNPYSIEYSELDCEEGWTQLKCGRNERAKVCFEKALEEKPNNPEFSSGLAIAMYHLDNHPEKQFSTDVLKQAIELSPDNQYVKVLLGLKLQKMNKEAEGEQFVEEALEKSPCQTDVLRSAAKFYRRKGDLDKAIELFQRVLESTPNNGYLYHQIGCCYKAKVRQMQNTGESEASGNKEMIEALKQYAMDYSNKALEKGLNPLNAYSDLAEFLETECYQTPFNKEVPDAEKQQSHQRYCNLQKYNGKSEDTAVQHGLEGLSISKKSTDKEEIKDQPQNVSENLLPQNAPNYWYLQGLIHKQNGDLLQAAKCYEKELGRLLRDAPSGIGSIFLSASELEDGSEEMGQGAVSSSPRELLSNSEQLN
On to B1, for which the binding entry in experiment [1] was “binds”.

B2: IFIT3, tagged, expressed from a plasmid (protein, UniProt O14879 1-490)
chain: MSEVTKNSLEKILPQLKCHFTWNLFKEDSVSRDLEDRVCNQIEFLNTEFKATMYNLLAYIKHLDGNNEAALECLRQAEELIQQEHADQAEIRSLVTWGNYAWVYYHLGRLSDAQIYVDKVKQTCKKFSNPYSIEYSELDCEEGWTQLKCGRNERAKVCFEKALEEKPNNPEFSSGLAIAMYHLDNHPEKQFSTDVLKQAIELSPDNQYVKVLLGLKLQKMNKEAEGEQFVEEALEKSPCQTDVLRSAAKFYRRKGDLDKAIELFQRVLESTPNNGYLYHQIGCCYKAKVRQMQNTGESEASGNKEMIEALKQYAMDYSNKALEKGLNPLNAYSDLAEFLETECYQTPFNKEVPDAEKQQSHQRYCNLQKYNGKSEDTAVQHGLEGLSISKKSTDKEEIKDQPQNVSENLLPQNAPNYWYLQGLIHKQNGDLLQAAKCYEKELGRLLRDAPSGIGSIFLSASELEDGSEEMGQGAVSSSPRELLSNSEQLN
Consider B2, for which, in experiment [2], the binding entry is on record as “binds”.
